Experimental data from patent US6511961B1, “Cyclic peptides and medicinal use thereof” (Toray Industries, Inc., priority 1997, dated 2003).
Not every detail of the peptide structures is certain; ends, links or a residue may be inferred. For some of these results: For at least one compound, name, drawing or mass did not settle the structure. Bridge positions count the residues as written; N and C are the ends. Square brackets hold non-standard residues; d marks the D form. Peptide text beside a SMILES is read from it. Met(O2) = CS(=O)(=O)CC[C@H](N)C(=O)O

Key:
Type in all cases: in vivo
[1] = tested on: BALB/c mice; experiment: Peritonitis model (Ascaris antigen), eosinophil accumulation in the abdominal cavity; conditions: mouse, 40 mg/kg intraperitoneally x5, 48 hours after Ascaris antigen challenge, p<0.001
[2] = tested on: BALB/c type mice; experiment: Ear oedema model (dinitrofluorobenzene); conditions: mouse, applied to the ear just prior to challenge (dexamethasone 30 μg/ear, cyclic peptide 1 mg/ear), 24 hours after challenge; p<0.001 and p<0.05 respectively
[3] = tested on: BALB/c mice; experiment: ConA-induced hepatitis (liver injury) model, serum AST and ALT; conditions: mouse, ConA 20 mg/kg i.v., serum 8 hours after ConA, 16 hours prior to and just prior to challenge

CC[C@H](C)[C@@H]1NC(=O)[C@@H](N)CSSC[C@@H](C(=O)O)NC(=O)[C@H](CC(C)C)NC(=O)[C@H](Cc2c[nH]cn2)NC(=O)[C@H](CCS(C)(=O)=O)NC1=O [Sequence Number 17, C*IMet(O2)HLC*] (H-CI[Met(O2)]HLC-OH; disulfide 1-6; N-terminus and C-terminus assumed)
suppression of eosinophil accumulation in the abdominal cavity caused by antigen challenge [1]: significantly suppressed eosinophil accumulation
suppression of ear swelling (ear oedema) induced by dinitrofluorobenzene application [2]: clearly significantly suppress ear oedema
Suppression of Increase in ALT (%) ([3]; dose 100 μg/kg): 38.7%
Suppression of Increase in AST (%) ([3]; dose 100 μg/kg): 27.0%
Suppression of Increase in ALT (%) ([3]; dose 500 μg/kg): 49.5%
Suppression of Increase in AST (%) ([3]; dose 500 μg/kg): 48.0%

C[C@@H]1C[C@H]2[C@@H]3CCC4=CC(=O)C=C[C@]4(C)[C@@]3(F)[C@@H](O)C[C@]2(C)[C@@]1(O)C(=O)CO [dexamethasone, reference compound]
suppression of ear swelling (ear oedema) induced by dinitrofluorobenzene application [2]: clearly significantly suppress ear oedema
